# About 13,000 (3.2%) of roughly 400,000 compounds were called active. Inconclusive results, whose numbers are uncertain, are shown with a selection of clear calls. The call rests on the fitted dose curve; in most records, active means well fitted cell-killing curve with a large enough effect; inconclusive means small, poorly fitted or top-dose-only effect, or effect the other way; inactive means flat fitted curve, though single readings scatter. Where the call is inconclusive, the potency comes from a doubtful curve fit.
# Experiment: qHTS assay for MDR1-selective chemotherapeutics: Primary screen using the drug-selected MDR subline cells KB-V1; further: nearly all actives have a fitted effect of over 60% in size
# Conditions: KB-V1 MDR cells viability, CellTiter-Glo, 72 h; activity change, negative = cytotoxicity: at 46.1 µM (top of the series)
# In short: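 Readout: CellTiter-Glo luminescence, 10 min after addition. Cells: KB-V1 MDR subline, 72 h at 37 degrees C with compound. Analysis: corrected, normalized data fitted to concentration-effect curves.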
# On the % scale 0 is the no-effect control and ±100 the full control effect; potency means the concentration at half of the fitted maximal effect.
Structure (SMILES),Potency,"activity change, negative = cytotoxicity"
FC(F)(F)c1cc(-c2ccc(Cl)cc2)nc(NCc2cccnc2)n1,"inconclusive: 29.1 µM [cytotoxic, single point]",
CN1OC[C@@H]2CN(Cc3ccc(Cl)cc3)[C@H](c3ccc(N4CCCCC4)cc3)C[C@@H]21,inactive,
CCc1cccc(C)c1NC(=O)C1CCN(S(=O)(=O)Cc2ccccc2)CC1,inactive,
CC1CCCN(C(=O)COC(=O)Cn2cnc3ccccc32)C1 (configuration not stated),"inconclusive: 29.1 µM [rising, single point]",
C=CC[C@H](CC(=O)N(CCO)Cc1ccccc1)C(=O)NC[C@H](OC(=O)[C@@H](CC=C)CC(=O)OC(C)(C)C)c1ccccc1,"inconclusive: 20.6 µM [cytotoxic, single point]",
O=C(CN(C1CC1)S(=O)(=O)c1ccc(S(=O)(=O)N2CCCCCC2)cc1)Nc1ccccc1,inactive,
CCn1cc(C(=O)NCCCOC)c(=O)c2cc(S(=O)(=O)N(C)C3CCCCC3)ccc21,inactive,
O=C(CN1C(=O)c2ccccc2S1(=O)=O)c1ccccc1F,"inconclusive: 11.6 µM [rising, single point]",
COc1cc(/C=N/OCC(=O)Nc2cc(C)on2)ccc1OCc1ccccc1,"inconclusive: 29.1 µM [cytotoxic, single point]",
Cc1ccc(NC(=S)N/N=C/c2ccc([N+](=O)[O-])s2)cc1,"inconclusive: 3.26 µM [cytotoxic, full curve]",
CCC(=O)N1CCc2cc(S(=O)(=O)NCCC(=O)Nc3ccccc3C)ccc21,"inconclusive: 29.1 µM [cytotoxic, single point]",
COC(=O)c1cc(C)[nH]c2c(C)cc3nc4ccccc4c3c12,"inconclusive: 29.1 µM [cytotoxic, single point]",
O=C(CCc1ccccc1)Nc1ccc2ccccc2n1,"inconclusive: 23.1 µM [cytotoxic, single point]",
O=C(CSc1nc(Cc2ccccc2)nc2ccccc12)Nc1ccc2c(c1)OCCO2,"inconclusive: 25.9 µM [cytotoxic, single point]",
COc1ccccc1-n1nnnc1SCC(=O)Nc1ccccc1,,inconclusive: 24.7%
N#CCSc1ccsc1C(=O)Nc1ccc(F)cc1,"inconclusive: 13 µM [cytotoxic, partial curve, poor fit]",
CC(=O)N(CCCN(C)C)Cc1ccccn1,"inconclusive: 23.1 µM [rising, single point]",
COc1ccc(S(=O)(=O)N2CCCC(C(=O)NCc3ccco3)C2)cc1Cl (configuration not stated),"inconclusive: 2.06 µM [cytotoxic, partial curve, poor fit]",
Cc1cccc(OCC(=O)Nc2nonc2NC(=O)COc2cccc(C)c2)c1,"inconclusive: 23.1 µM [cytotoxic, partial curve, poor fit]",
CC1CCN(S(=O)(=O)c2ccc3c(ccn3CCC(=O)NC(C)C)c2)CC1,"inconclusive: 13 µM [cytotoxic, partial curve, poor fit]",
Cc1ccc(-c2ccc(NC(=O)C3C4C=CC(C4)C3C(=O)O)cc2)o1 (configuration not stated),"inconclusive: 29.1 µM [cytotoxic, single point]",
COC(=O)c1ccc(NC(=O)Cn2nnc3ccccc32)cc1,"inconclusive: 16.4 µM [cytotoxic, partial curve, poor fit]",
COC(=O)c1ccccc1NC(=O)N1CCc2c(sc3c2CCCC3)C1c1ccc(F)cc1 (configuration not stated),"inconclusive: 20.6 µM [rising, single point]",

Structure (SMILES),Potency,"activity change, negative = cytotoxicity"
C=CCN=c1scc(-c2ccc3c(c2)NC(=O)CO3)n1/N=C(\C)c1ccccn1,"inconclusive: 1.84 µM [cytotoxic, full curve]",
CC1C(c2ccccc2)OCCN1C(=S)NC(=O)c1ccccc1 (configuration not stated),inactive,
COCCn1c(SCC(=O)Nc2cccnc2Cl)nc2cc(Cl)ccc2c1=O,"inconclusive: 20.6 µM [cytotoxic, single point]",
O=C(Nc1c2c(nc3c1CCC3)CCCC2)c1ccccn1,"inconclusive: 9.2 µM [cytotoxic, partial curve, poor fit]",
Cc1[nH]c2ccccc2c1C(=O)CSCC(=O)O,"inconclusive: 29.1 µM [rising, single point]",
COc1ccc(OC)c(-n2c(C)ccc2-c2ccc(S(C)(=O)=O)cc2)c1,"inconclusive: 14.6 µM [cytotoxic, single point]",
Cc1ccc(Cl)cc1N1CCN(C(CC(C)C)c2nnnn2CC2CCCO2)CC1 (configuration not stated),"inconclusive: 7.31 µM [cytotoxic, partial curve]",
O=C(N/N=C/c1c(O)n(Cc2ccco2)c(=O)[nH]c1=O)c1ccccc1,inactive,
CCC(c1nnnn1-c1c(C)cccc1C)N1CCCN(Cc2ccc(F)cc2)CC1 (configuration not stated),"inconclusive: 6.51 µM [cytotoxic, partial curve]",
CCCCOC(=O)c1ccc(NC(=O)c2nn(C)cc2Br)cc1,"inconclusive: 16.4 µM [cytotoxic, single point]",
COc1ccc(OC)c(/C=C/c2nc3ccccc3nc2C)c1,"inconclusive: 10.3 µM [cytotoxic, partial curve]",
Cn1c(=O)cc(OCC(=O)NCCCN2CCN(c3ccccc3F)CC2)c2ccccc21,"inconclusive: 16.4 µM [cytotoxic, partial curve, poor fit]",
COc1cc(Nc2nnc(C)s2)c(Cl)cc1Cl,inactive,
CSCCC(NC(=O)c1ccccc1)C(=O)Nc1ccncc1 (configuration not stated),"inconclusive: 20.6 µM [cytotoxic, single point]",
CCCC(=O)N1CCN(c2nc3ccc(Cl)cc3s2)CC1,"inconclusive: 29.1 µM [cytotoxic, single point]",
Cc1ccc2nc(C)cc(Nc3ccc([N+](=O)[O-])cc3)c2c1,inactive,
CCOc1ccc(C(=O)c2cn(CC(=O)Nc3ccc(Cl)cc3)c3cc4c(cc3c2=O)OCCO4)cc1,inactive,
N/C(=N\OC(=O)Cc1ccccc1)c1ccc(Br)cc1,"inconclusive: 29.1 µM [rising, single point]",
O=C(COC(=O)/C=C/c1ccccc1)NC(=O)NC1CCCCC1,inactive,
Cc1ccc2nc(-c3ccccc3)cn2c1,active: 10.3 µM,
COc1cc([N+](=O)[O-])ccc1NC(=O)CN1CCOCC1,inactive,
CCN(CC)S(=O)(=O)c1ccc(N2CCCC2)c(C(=O)OCC(=O)N2CCCC2)c1,"inconclusive: 7.31 µM [cytotoxic, partial curve]",
COC(=O)CSC1=C(C#N)C(c2ccccc2OC)C(C(=O)OC)C(=O)N1 (configuration not stated),"inconclusive: 29.1 µM [rising, single point]",

Structure (SMILES),Potency,"activity change, negative = cytotoxicity"
CC(=O)[C@H]1CC[C@H]2[C@@H]3C=CC4=CC(=O)CC[C@@]4(C)[C@@H]3CC[C@]12C,"inconclusive: 18.4 µM [cytotoxic, partial curve]",
N#CCOC(=O)C1CSC2(c3ccc(Br)cc3)CCC(=O)N12 (configuration not stated),"inconclusive: 18.4 µM [rising, single point]",
Cc1ccc(S(=O)(=O)C(C#N)c2nc3ccccc3nc2N2CCCC2)cc1 (configuration not stated),active: 18.4 µM,
O=C(NC1CCCC1)C(c1ccncc1)N(C(=O)c1csnn1)c1ccc(Cl)cc1 (configuration not stated),inactive,
CCCn1c2ccccc2c2cnn(CC(=O)NCCCN3C(C)CCCC3C)c(=O)c21 (configuration not stated),"inconclusive: 8.2 µM [rising, partial curve]",
COc1cc(S(=O)(=O)Nc2ccc3c(c2)C(=O)N(C)C3=O)ccc1NC(C)=O,inactive,
O=C(CCCCCCCC(=O)c1ccccc1)c1ccccc1,inactive,
C[C@H]1CCCCO[C@H](CN(C)C(=O)C2CCCCC2)[C@@H](C)CN([C@@H](C)CO)C(=O)c2cc(NC(=O)NC3CCCCC3)ccc2O1,"inconclusive: 8.2 µM [rising, partial curve, poor fit]",
CC(=O)c1cccc(NC(=O)c2noc3c2CCCC3)c1,"inconclusive: 29.1 µM [cytotoxic, single point]",
Cc1cccc(N(CC(=O)NC2CCCCC2)C(=O)Cn2nnc(-c3ccc(C)o3)n2)c1,"inconclusive: 5.8 µM [cytotoxic, full curve]",
Cc1cc(C)cc(NC(=S)N(CCCN2CCN(C)CC2)Cc2cccs2)c1,"inconclusive: 29.1 µM [cytotoxic, single point]",
COc1cccc(N2C(=O)CC(Sc3nc(C)cc(C)n3)C2=O)c1 (configuration not stated),inactive,
COc1ccc(OC)c(NC(=O)c2cnn(-c3ccc(C)cc3)c2C2CCNCC2)c1,inactive,
CCc1cccc(C)c1NC(=O)C1CCCN(S(C)(=O)=O)C1 (configuration not stated),"inconclusive: 29.1 µM [rising, single point]",
CCCn1c(SCC(=O)N2N=C3/C(=C/c4ccc(OC)cc4)CCCC3C2c2ccc(OC)cc2)n[nH]c1=O (configuration not stated),"inconclusive: 18.4 µM [cytotoxic, single point]",
Cc1nc(NC(=O)CSc2nnc(N)s2)c(Cl)cc1Cl,"inconclusive: 23.1 µM [cytotoxic, single point]",
COc1ccc(-c2cnnn2-c2ccc(NC(=O)c3ccc(S(=O)(=O)N4CCCCC4)cc3)cc2)cc1,"inconclusive: 4.61 µM [cytotoxic, full curve, poor fit]",
CCOc1ccccc1CNc1ncnc2ccc(-c3c(C)noc3C)cc12,inactive,
c1ccc(-c2csc3ncnc(N4CCN(Cc5ccc6c(c5)OCO6)CC4)c23)cc1,"inconclusive: 8.2 µM [cytotoxic, partial curve]",
COc1cc(OC)c(/C=C2\C(=O)Nc3ccccc32)c(OC)c1,active: 8.2 µM,
Cc1ccc(OCC(=O)Nc2ccc3oc(=O)ccc3c2)cc1,"inconclusive: 16.4 µM [rising, single point]",

# Given with tabs: part of the list above.
Structure (SMILES)	Potency	activity change, negative = cytotoxicity
Cc1nc(NC(=O)CSc2nnc(N)s2)c(Cl)cc1Cl	inconclusive: 23.1 µM [cytotoxic, single point]	
COc1ccc(-c2cnnn2-c2ccc(NC(=O)c3ccc(S(=O)(=O)N4CCCCC4)cc3)cc2)cc1	inconclusive: 4.61 µM [cytotoxic, full curve, poor fit]	
CCOc1ccccc1CNc1ncnc2ccc(-c3c(C)noc3C)cc12	inactive	
c1ccc(-c2csc3ncnc(N4CCN(Cc5ccc6c(c5)OCO6)CC4)c23)cc1	inconclusive: 8.2 µM [cytotoxic, partial curve]	

# Reference: PubChem BioAssay AID1347076 (National Center for Advancing Translational Sciences (NCATS), 2019)
